# Data published in patent US20170189504A1, “NOVEL PEPTIDES AND COMBINATION OF PEPTIDES FOR USE IN IMMUNOTHERAPY AGAINST VARIOUS CANCERS” (immatics biotechnologies GmbH, priority 2015, published 2017).
# For some assays here: For expression read-outs the peptide stands for its source gene, whose mRNA was measured; the gene is not named for every peptide.
# Key:
# [1] = test system: HLA-A*02; experiment: Identification and relative LC-MS quantitation of HLA-A*02-presented tumor-associated peptides on tissue samples (presentation profiles, Tables 13A, 13B, 15, FIG. 1); design: species or system human; key to Presentation score NHL / Presentation score CLL / Presentation score BRCA / Presentation score AML / Presentation score GB / Presentation score NSCLC / Presentation score GBC_CCC / Presentation score UEC / Presentation score MEL / Presentation score OSCAR / Presentation score GC / Presentation score UBC / Presentation score OC / Presentation score RCC / Presentation score CRC / Presentation score PCA / Presentation score HCC / Presentation score PC / Presentation score SCLC: specifically presented on tumors (++++); very highly over-presented on tumors compared to a panel of normal tissues (+++); highly over-presented on tumors compared to a panel of normal tissues (++); over-presented on tumors compared to a panel of normal tissues (+); settings: for Presentation score AML: acute myeloid leukemia (N = 18) vs panel of normal tissues (N = 262); for Presentation score NHL: non-Hodgkin lymphoma (N = 18) vs panel of normal tissues (N = 262); for Presentation score NSCLC: non-small cell lung cancer (N = 90) vs panel of normal tissues (N = 262); for Peptide Presentation on cancer entities: HLA-A*02-binding tumor-associated peptides
# [2] = test system: source genes (mRNA); experiment: Gene and exon expression of source genes, TCGA tumor samples compared with normal tissue samples (Lonsdale, 2013) (Table 17); design: species or system human; settings: for Target coverage: over-expression category of source gene, LAML: Acute Myeloid Leukemia (N = 173); for Target coverage: over-expression category of source gene, BRCA: Breast cancer (N = 1104), cutoff more than 2-fold above highest 75% percentile of high and medium risk normal tissue samples; for Target coverage: over-expression category of source gene, READ: Colon and rectal adenocarcinoma (N = 167); for Target coverage: over-expression category of source gene, COAD: Colon and rectal adenocarcinoma (N = 462); for Target coverage: over-expression category of source gene, ESCA: Esophageal cancer (N = 185); for Target coverage: over-expression category of source gene, KICH: Kidney chromophobe (N = 66); for Target coverage: over-expression category of source gene, LGG: Lower grade glioma (N = 534); for Target coverage: over-expression category of source gene, LUAD: Lung adenocarcinoma (N = 517); for Target coverage: over-expression category of source gene, LUSC: Lung squamous cell carcinoma (N = 503); for Target coverage: over-expression category of source gene, DLBC: Lymphoid neoplasm diffuse large B-cell lymphoma (N = 48); for Target coverage: over-expression category of source gene, OV: Ovarian serous cystadenocarcinoma (N = 309); for Target coverage: over-expression category of source gene, KIRP: Papillary kidney carcinoma (N = 291); for Target coverage: over-expression category of source gene, PRAD: Prostate adenocarcinoma (N = 498); for Target coverage: over-expression category of source gene, SKCM: Skin cutaneous melanoma (N = 473); for Target coverage: over-expression category of source gene, STAD: Stomach adenocarcinoma (N = 415); for Target coverage: over-expression category of source gene, UCEC: Uterine corpus endometrial carcinoma (N = 546)
# [3] = test system: source genes (mRNA); experiment: Expression profiling of source genes by in-house RNASeq of tumor and normal tissues (Table 18, FIG. 2); design: species or system human; key: very highly over-expressed in tumors compared to a panel of normal tissues (+++); highly over-expressed in tumors compared to a panel of normal tissues (++); over-expressed in tumors compared to a panel of normal tissues (+); settings: source gene of peptide; for Expression score NSCLC: non-small cell lung cancer (N = 11) vs panel of normal tissues; for Expression score OC: ovarian cancer (N = 12) vs panel of normal tissues; for Expression score SCLC: small cell lung cancer (N = 10) vs panel of normal tissues
# [4] = Table 13A, cancer entities on which the peptide was found presented
# [5] = Table 13B, presentation on additional cancer entities
# [6] = cutoff more than 2-fold above highest 75% percentile of normal tissue samples
Substance,Presentation score AML ([1]; HLA-A*02 peptides),Presentation score NHL ([1]; HLA-A*02 peptides),Presentation score NSCLC ([1]; HLA-A*02 peptides),"Peptide Presentation on cancer entities [1, 4]","Peptide Presentation on cancer entities [1, 5]","Target coverage: over-expression category of source gene, LAML [2, 6]","Target coverage: over-expression category of source gene, BRCA [2]","Target coverage: over-expression category of source gene, READ [2, 6]","Target coverage: over-expression category of source gene, COAD [2, 6]","Target coverage: over-expression category of source gene, ESCA [2, 6]","Target coverage: over-expression category of source gene, KICH [2, 6]","Target coverage: over-expression category of source gene, LGG [2, 6]","Target coverage: over-expression category of source gene, LUAD [2, 6]","Target coverage: over-expression category of source gene, LUSC [2, 6]","Target coverage: over-expression category of source gene, DLBC [2, 6]","Target coverage: over-expression category of source gene, OV [2, 6]","Target coverage: over-expression category of source gene, KIRP [2, 6]","Target coverage: over-expression category of source gene, PRAD [2, 6]","Target coverage: over-expression category of source gene, SKCM [2, 6]","Target coverage: over-expression category of source gene, STAD [2, 6]",other results
91: peptide found in TRRAP (gene looked up) (KLFDESILI; listed as Homo sapiens) [compound 91],+,+,++,"GC, NSCLC, PCA, CLL, OSCAR, OC, SCLC, UEC, BRCA, AML, NHL","HCC, HNSCC",A (>=50% of tumors above the cutoff),"B (>= 20% of tumors above the cutoff, but <50%)","C (>=5% of tumors above the cutoff, but <20%)","C (>=5% of tumors above the cutoff, but <20%)",A (>=50% of tumors above the cutoff),"C (>=5% of tumors above the cutoff, but <20%)","C (>=5% of tumors above the cutoff, but <20%)","C (>=5% of tumors above the cutoff, but <20%)","C (>=5% of tumors above the cutoff, but <20%)","C (>=5% of tumors above the cutoff, but <20%)","B (>= 20% of tumors above the cutoff, but <50%)","C (>=5% of tumors above the cutoff, but <20%)","C (>=5% of tumors above the cutoff, but <20%)","C (>=5% of tumors above the cutoff, but <20%)",A (>=50% of tumors above the cutoff),"Presentation score OC ([1]; HLA-A*02 peptides, ovarian cancer (N = 20) vs panel of normal tissues (N = 262)): +; Target coverage: over-expression category of source gene, KIRC ([2]; Clear cell kidney carcinoma (N = 534), cutoff more than 2-fold above highest 75% percentile of normal tissue samples): C (>=5% of tumors above the cutoff, but <20%); Target coverage: over-expression category of source gene, UCEC [2, 6]: C (>=5% of tumors above the cutoff, but <20%); Expression score CLL ([3]; chronic lymphocytic leukemia (N = 10) vs panel of normal tissues): +; Expression score GB ([3]; glioblastoma (N = 24) vs panel of normal tissues): +; Expression score NHL ([3]; non-Hodgkin lymphoma (N = 10) vs panel of normal tissues): +; Expression score NSCLC [3]: +; Expression score OC [3]: +; Expression score SCLC [3]: +"
93: peptide found in TTI1 (gene looked up) (QVLELDVADI; listed as Homo sapiens) [compound 93],+++,+++,+++,"GC, NSCLC, PCA, SCLC, UBC, UEC, BRCA, CRC, AML, NHL",HNSCC,A (>=50% of tumors above the cutoff),"C (>=5% of tumors above the cutoff, but <20%)",A (>=50% of tumors above the cutoff),"B (>= 20% of tumors above the cutoff, but <50%)",A (>=50% of tumors above the cutoff),"C (>=5% of tumors above the cutoff, but <20%)","C (>=5% of tumors above the cutoff, but <20%)","C (>=5% of tumors above the cutoff, but <20%)","B (>= 20% of tumors above the cutoff, but <50%)","C (>=5% of tumors above the cutoff, but <20%)",A (>=50% of tumors above the cutoff),"C (>=5% of tumors above the cutoff, but <20%)","C (>=5% of tumors above the cutoff, but <20%)","B (>= 20% of tumors above the cutoff, but <50%)","B (>= 20% of tumors above the cutoff, but <50%)","Presentation score BRCA ([1]; HLA-A*02 peptides, breast cancer (N = 17) vs panel of normal tissues (N = 262)): +++; Presentation score CRC ([1]; HLA-A*02 peptides, colorectal cancer (N = 28) vs panel of normal tissues (N = 262)): +++; Presentation score GC ([1]; HLA-A*02 peptides, gastric cancer (N = 29) vs panel of normal tissues (N = 262)): +++; Presentation score PCA ([1]; HLA-A*02 peptides, prostate cancer and benign prostate hyperplasia (N = 39) vs panel of normal tissues (N = 262)): +++; Presentation score SCLC ([1]; HLA-A*02 peptides, small cell lung cancer (N = 19) vs panel of normal tissues (N = 262)): +++; Presentation score UBC ([1]; HLA-A*02 peptides, urinary bladder cancer (N = 16) vs panel of normal tissues (N = 262)): +++; Presentation score UEC ([1]; HLA-A*02 peptides, uterine cancer (N = 15) vs panel of normal tissues (N = 262)): +++; Target coverage: over-expression category of source gene, BLCA ([2]; Bladder urothelial carcinoma (N = 408), cutoff more than 2-fold above highest 75% percentile of normal tissue samples): B (>= 20% of tumors above the cutoff, but <50%); Target coverage: over-expression category of source gene, CHOL ([2]; Cholangiocarcinoma (N = 36), cutoff more than 2-fold above highest 75% percentile of normal tissue samples): C (>=5% of tumors above the cutoff, but <20%); Target coverage: over-expression category of source gene, GBM ([2]; Glioblastoma multiforme (N = 169), cutoff more than 2-fold above highest 75% percentile of normal tissue samples): B (>= 20% of tumors above the cutoff, but <50%); Target coverage: over-expression category of source gene, LIHC ([2]; Liver hepatocellular carcinoma (N = 374), cutoff more than 2-fold above highest 75% percentile of normal tissue samples): C (>=5% of tumors above the cutoff, but <20%); Target coverage: over-expression category of source gene, UCEC [2, 6]: B (>= 20% of tumors above the cutoff, but <50%); Expression score CRC ([3]; colorectal cancer (N = 20) vs panel of normal tissues): +; Expression score NSCLC [3]: +; Expression score OC [3]: +; Expression score SCLC [3]: +"
